For this data set the following is noted: buffer, 72 h, pH 7.4.

≈ marks a conversion by molar mass, not a printed value.

By solubility is commonly meant the dissolved amount per volume that the medium holds. A high value points to a readily soluble substance.

Regarding `Nc1nnc(CCSCCc2nnc(NC(=O)Cc3ccccc3)s2)s1`, the solubility came to 13 µg/mL (≈ 32 µM).

The values are drawn from ChEMBL document CHEMBL2177047, “Design, synthesis, and pharmacological evaluation of bis-2-(5-phenylacetamido-1,2,4-thiadiazol-2-yl)ethyl sulfide 3 (BPTES) analogs as glutaminase inhibitors” (J Med Chem, 2012).
